Results are given in words; binding and its absence hold for the method and conditions named. In cells and extracts the contact can be indirect. Where a sequence is shown, tags or fusion partners need not be part of it.
Target: RXEG1 ∆LRR-GFP (SP + eJM + TM + tail of RXEG1, GFP-tagged) (Nicotiana benthamiana)
Assay: co-IP; proteins co-expressed in N. benthamiana leaves, isolated at 2 dai; total protein extract (150-200 mM NaCl, 50 mM Tris-HCl pH 7.5, 10 mM EDTA, 1.0% NP-40); GFP-trap A beads, 4 °C, 2 h; blots with anti-GFP and anti-HA

B1: XEG1-HA (Phytophthora sojae glycoside hydrolase 12 protein XEG1, C-terminal HA tag) (protein, UniProt G4ZHR2 20-241)
chain: GDYCGQWDWAKSTNYIVYNNLWNKNAAASGSQCTGVDKISGSTIAWHTSYTWTGGAATEVKSYSNAALVFSKKQIKNIKSIPTKMKYSYSHSSGTFVADVSYDLFTSSTASGSNEYEIMIWLAAYGGAGPISSTGKAIATVTIGSNSFKLYKGPNGSTTVFSFVATKTITNFSADLQKFLSYLTKNQGLPSSQYLITLEAGTEPFVGTNAKMTVSSFSAAVN
binding: no binding
